The values that follow come from paper PMC5995921.

These are yes or no findings as the source states them, for the method shown. Binding seen in cells or lysates may run through a third protein. Binding can be weak; no strength is given.

The target of the test is T1, VE-cadherin (human (endogenous in HUVEC)) (UniProt P33151).
T1 sequence: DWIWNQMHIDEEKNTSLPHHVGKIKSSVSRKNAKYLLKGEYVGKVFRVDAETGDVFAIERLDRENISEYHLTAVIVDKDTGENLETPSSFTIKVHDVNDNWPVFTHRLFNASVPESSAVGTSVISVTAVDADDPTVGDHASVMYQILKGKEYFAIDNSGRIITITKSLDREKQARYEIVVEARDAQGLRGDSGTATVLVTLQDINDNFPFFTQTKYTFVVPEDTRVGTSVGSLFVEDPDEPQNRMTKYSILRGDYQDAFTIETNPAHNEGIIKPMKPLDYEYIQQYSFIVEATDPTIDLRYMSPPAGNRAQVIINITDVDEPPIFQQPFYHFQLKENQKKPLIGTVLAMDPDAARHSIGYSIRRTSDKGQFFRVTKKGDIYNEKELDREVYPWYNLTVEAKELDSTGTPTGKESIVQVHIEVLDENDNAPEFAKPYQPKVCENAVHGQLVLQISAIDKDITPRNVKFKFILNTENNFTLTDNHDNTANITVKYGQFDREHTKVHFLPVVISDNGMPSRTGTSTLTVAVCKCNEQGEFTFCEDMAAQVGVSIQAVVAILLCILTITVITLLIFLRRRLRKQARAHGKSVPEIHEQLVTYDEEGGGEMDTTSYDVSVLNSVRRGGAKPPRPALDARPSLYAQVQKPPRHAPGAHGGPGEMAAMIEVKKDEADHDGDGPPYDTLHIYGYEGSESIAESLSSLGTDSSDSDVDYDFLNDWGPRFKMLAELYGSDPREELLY
Briefly: co-IP; HUVECs untreated or treated with Caov-3-derived exosomes (25 μg/mL); lysates (1 mg) immunoprecipitated with anti-VE-cadherin; blotted with anti-E-cadherin and anti-VE-cadherin.

In the case of “soluble E-cadherin (sE-cad) on Caov-3-derived exosomes (human (endogenous in Caov-3))”, the binding result is recorded as “binds”.
